Shown are survivors of the treated group in tumour-free mice. Counts of survivors are from the toxicity check (mostly the fifth day) where no day follows; animals may have died later. Schedules are NCI's codes, read here as Q, the interval in days (D) or hours (H), X, the number of doses.
System: B6D2F1 mice, nontumored toxicity test, survival
Assay: NCI In Vivo Anticancer Drug Screen. Data for tumor model Nontumored Animals (Toxicity Test) in B6D2F1 (BDF1) mice

O=c1[nH]c(=O)n([C@H]2CCCO2)cc1F
survivor count (dose: 28.1 mg/kg/injection, schedule: Q01DX032 (other), vehicle: water): 6 of 6
survivor count (dose: 35.2 mg/kg/injection, schedule: Q01DX032 (other), vehicle: water): 6 of 6
survivor count (dose: 38.9 mg/kg/injection, schedule: Q01DX012 (sc), vehicle: clinical formulation): 6 of 6
survivor count (dose: 44.0 mg/kg/injection, schedule: Q01DX016 (other), vehicle: water): 6 of 6
survivor count (dose: 44.0 mg/kg/injection, schedule: Q01DX032 (other), vehicle: water): 6 of 6
survivor count (dose: 55.0 mg/kg/injection, schedule: Q01DX012 (other), vehicle: water): 6 of 6
survivor count (dose: 55.0 mg/kg/injection, schedule: Q01DX016 (other), vehicle: water): 6 of 6
survivor count (dose: 55.0 mg/kg/injection, schedule: Q01DX032 (other), vehicle: water): 6 of 6
survivor count (dose: 68.7 mg/kg/injection, schedule: Q01DX008 (other), vehicle: water): 6 of 6
survivor count (dose: 68.7 mg/kg/injection, schedule: Q01DX012 (other), vehicle: water): 6 of 6
survivor count (dose: 68.7 mg/kg/injection, schedule: Q01DX016 (other), vehicle: water): 6 of 6
survivor count (dose: 68.7 mg/kg/injection, schedule: Q01DX032 (other), vehicle: water): 6 of 6
survivor count (dose: 85.9 mg/kg/injection, schedule: Q01DX006 (other), vehicle: water): 6 of 6
survivor count (dose: 85.9 mg/kg/injection, schedule: Q01DX008 (other), vehicle: water): 6 of 6
survivor count (dose: 85.9 mg/kg/injection, schedule: Q01DX012 (other), vehicle: water): 6 of 6
survivor count (dose: 85.9 mg/kg/injection, schedule: Q01DX016 (other), vehicle: water): 6 of 6
survivor count (dose: 85.9 mg/kg/injection, schedule: Q01DX032 (other), vehicle: water): 6 of 6
survivor count (dose: 100.0 mg/kg/injection, schedule: Q01DX001 (ip), vehicle: other): 6 of 6
survivor count (dose: 105.0 mg/kg/injection, schedule: Q01DX012 (sc), vehicle: clinical formulation): 6 of 6
survivor count (dose: 107.0 mg/kg/injection, schedule: Q01DX004 (other), vehicle: water): 6 of 6
survivor count (dose: 107.0 mg/kg/injection, schedule: Q01DX006 (other), vehicle: water): 6 of 6
survivor count (dose: 107.0 mg/kg/injection, schedule: Q01DX008 (other), vehicle: water): 6 of 6
survivor count (dose: 107.0 mg/kg/injection, schedule: Q01DX012 (other), vehicle: water): 6 of 6
survivor count (dose: 107.0 mg/kg/injection, schedule: Q01DX016 (other), vehicle: water): 6 of 6
survivor count (dose: 107.0 mg/kg/injection, schedule: Q01DX032 (other), vehicle: water): 6 of 6
survivor count (dose: 131.0 mg/kg/injection, schedule: Q01DX005 (sc), vehicle: clinical formulation): 6 of 6
survivor count (dose: 131.0 mg/kg/injection, schedule: Q01DX012 (sc), vehicle: clinical formulation): 6 of 6
survivor count (dose: 134.0 mg/kg/injection, schedule: Q01DX004 (other), vehicle: water): 6 of 6
survivor count (dose: 134.0 mg/kg/injection, schedule: Q01DX006 (other), vehicle: water): 6 of 6
survivor count (dose: 134.0 mg/kg/injection, schedule: Q01DX008 (other), vehicle: water): 6 of 6
survivor count (dose: 134.0 mg/kg/injection, schedule: Q01DX012 (other), vehicle: water): 6 of 6
survivor count (dose: 134.0 mg/kg/injection, schedule: Q01DX016 (other), vehicle: water): 6 of 6
survivor count (dose: 134.0 mg/kg/injection, schedule: Q01DX032 (other), vehicle: water): 6 of 6
survivor count (dose: 164.0 mg/kg/injection, schedule: Q01DX005 (sc), vehicle: clinical formulation): 6 of 6
survivor count (dose: 164.0 mg/kg/injection, schedule: Q01DX012 (sc), vehicle: clinical formulation): 6 of 6
survivor count (dose: 168.0 mg/kg/injection, schedule: Q01DX001 (other), vehicle: water): 6 of 6
survivor count (dose: 168.0 mg/kg/injection, schedule: Q01DX002 (other), vehicle: water): 6 of 6
survivor count (dose: 168.0 mg/kg/injection, schedule: Q01DX004 (other), vehicle: water): 6 of 6
survivor count (dose: 168.0 mg/kg/injection, schedule: Q01DX006 (other), vehicle: water): 6 of 6
survivor count (dose: 168.0 mg/kg/injection, schedule: Q01DX008 (other), vehicle: water): 6 of 6
survivor count (dose: 168.0 mg/kg/injection, schedule: Q01DX012 (other), vehicle: water): 6 of 6
survivor count (dose: 168.0 mg/kg/injection, schedule: Q01DX016 (other), vehicle: water): 6 of 6
survivor count (dose: 200.0 mg/kg/injection, schedule: Q01DX001 (ip), vehicle: Klucel (hydroxypropylcellulose) (HPC)): 5 of 6
survivor count (dose: 200.0 mg/kg/injection, schedule: Q01DX001 (ip), vehicle: other): 6 of 6
survivor count (dose: 205.0 mg/kg/injection, schedule: Q01DX002 (sc), vehicle: clinical formulation): 6 of 6
survivor count (dose: 205.0 mg/kg/injection, schedule: Q01DX005 (sc), vehicle: clinical formulation): 6 of 6
survivor count (dose: 205.0 mg/kg/injection, schedule: Q01DX012 (sc), vehicle: clinical formulation): 6 of 6
survivor count (dose: 210.0 mg/kg/injection, schedule: Q01DX001 (other), vehicle: water): 6 of 6
survivor count (dose: 210.0 mg/kg/injection, schedule: Q01DX002 (other), vehicle: water): 5 of 6
survivor count (dose: 210.0 mg/kg/injection, schedule: Q01DX004 (other), vehicle: water): 6 of 6
survivor count (dose: 210.0 mg/kg/injection, schedule: Q01DX006 (other), vehicle: water): 6 of 6
survivor count (dose: 210.0 mg/kg/injection, schedule: Q01DX008 (other), vehicle: water): 6 of 6
survivor count (dose: 210.0 mg/kg/injection, schedule: Q01DX012 (other), vehicle: water): 6 of 6
survivor count (dose: 210.0 mg/kg/injection, schedule: Q01DX016 (other), vehicle: water): 6 of 6
survivor count (dose: 256.0 mg/kg/injection, schedule: Q01DX002 (sc), vehicle: clinical formulation): 6 of 6
survivor count (dose: 256.0 mg/kg/injection, schedule: Q01DX005 (sc), vehicle: clinical formulation): 6 of 6
survivor count (dose: 262.0 mg/kg/injection, schedule: Q01DX001 (other), vehicle: water): 6 of 6
survivor count (dose: 262.0 mg/kg/injection, schedule: Q01DX002 (other), vehicle: water): 6 of 6
survivor count (dose: 262.0 mg/kg/injection, schedule: Q01DX004 (other), vehicle: water): 6 of 6
survivor count (dose: 262.0 mg/kg/injection, schedule: Q01DX006 (other), vehicle: water): 6 of 6
survivor count (dose: 262.0 mg/kg/injection, schedule: Q01DX008 (other), vehicle: water): 6 of 6
survivor count (dose: 262.0 mg/kg/injection, schedule: Q01DX012 (other), vehicle: water): 6 of 6
survivor count (dose: 300.0 mg/kg/injection, schedule: Q01DX001 (ip), vehicle: other): 6 of 6
survivor count (dose: 320.0 mg/kg/injection, schedule: Q01DX002 (sc), vehicle: clinical formulation): 8 of 8
survivor count (dose: 320.0 mg/kg/injection, schedule: Q01DX005 (sc), vehicle: clinical formulation): 8 of 8
survivor count (dose: 320.0 mg/kg/injection, schedule: Q04DX002 (sc), vehicle: clinical formulation): 6 of 6
survivor count (dose: 328.0 mg/kg/injection, schedule: Q01DX001 (other), vehicle: water): 6 of 6
survivor count (dose: 328.0 mg/kg/injection, schedule: Q01DX002 (other), vehicle: water): 6 of 6
survivor count (dose: 328.0 mg/kg/injection, schedule: Q01DX004 (other), vehicle: water): 6 of 6
survivor count (dose: 328.0 mg/kg/injection, schedule: Q01DX006 (other), vehicle: water): 6 of 6
survivor count (dose: 328.0 mg/kg/injection, schedule: Q01DX008 (other), vehicle: water): 6 of 6
survivor count (dose: 400.0 mg/kg/injection, schedule: Q01DX001 (ip), vehicle: Klucel (hydroxypropylcellulose) (HPC)): 6 of 6
survivor count (dose: 400.0 mg/kg/injection, schedule: Q01DX001 (ip), vehicle: other): 6 of 6
survivor count (dose: 400.0 mg/kg/injection, schedule: Q01DX001 (sc), vehicle: clinical formulation): 6 of 6
survivor count (dose: 400.0 mg/kg/injection, schedule: Q01DX002 (sc), vehicle: clinical formulation): 6 of 6
survivor count (dose: 400.0 mg/kg/injection, schedule: Q04DX002 (sc), vehicle: clinical formulation): 8 of 8
survivor count (dose: 400.0 mg/kg/injection, schedule: Q10DX002 (sc), vehicle: clinical formulation): 5 of 5
survivor count (dose: 410.0 mg/kg/injection, schedule: Q01DX001 (other), vehicle: water): 6 of 6
survivor count (dose: 410.0 mg/kg/injection, schedule: Q01DX002 (other), vehicle: water): 6 of 6
survivor count (dose: 410.0 mg/kg/injection, schedule: Q01DX004 (other), vehicle: water): 6 of 6
survivor count (dose: 410.0 mg/kg/injection, schedule: Q01DX006 (other), vehicle: water): 6 of 6
survivor count (dose: 500.0 mg/kg/injection, schedule: Q01DX001 (ip), vehicle: other): 4 of 4
survivor count (dose: 500.0 mg/kg/injection, schedule: Q01DX001 (sc), vehicle: clinical formulation): 8 of 8
survivor count (dose: 500.0 mg/kg/injection, schedule: Q01DX002 (sc), vehicle: clinical formulation): 6 of 6
survivor count (dose: 500.0 mg/kg/injection, schedule: Q04DX002 (sc), vehicle: clinical formulation): 6 of 6
survivor count (dose: 500.0 mg/kg/injection, schedule: Q10DX002 (sc), vehicle: clinical formulation): 6 of 6
survivor count (dose: 512.0 mg/kg/injection, schedule: Q01DX001 (other), vehicle: water): 6 of 6
survivor count (dose: 512.0 mg/kg/injection, schedule: Q01DX002 (other), vehicle: water): 6 of 6
survivor count (dose: 512.0 mg/kg/injection, schedule: Q01DX004 (other), vehicle: water): 5 of 6
survivor count (dose: 600.0 mg/kg/injection, schedule: Q01DX001 (ip), vehicle: Klucel (hydroxypropylcellulose) (HPC)): 5 of 5
survivor count (dose: 600.0 mg/kg/injection, schedule: Q01DX001 (ip), vehicle: other): 5 of 5
survivor count (dose: 625.0 mg/kg/injection, schedule: Q01DX001 (sc), vehicle: clinical formulation): 6 of 6
survivor count (dose: 625.0 mg/kg/injection, schedule: Q04DX002 (sc), vehicle: clinical formulation): 6 of 6
survivor count (dose: 625.0 mg/kg/injection, schedule: Q10DX002 (sc), vehicle: clinical formulation): 6 of 6
survivor count (dose: 640.0 mg/kg/injection, schedule: Q01DX001 (other), vehicle: water): 6 of 6
survivor count (dose: 640.0 mg/kg/injection, schedule: Q01DX002 (other), vehicle: water): 6 of 6
survivor count (dose: 700.0 mg/kg/injection, schedule: Q01DX001 (ip), vehicle: other): 6 of 6
survivor count (dose: 781.0 mg/kg/injection, schedule: Q01DX001 (sc), vehicle: clinical formulation): 6 of 6
survivor count (dose: 781.0 mg/kg/injection, schedule: Q04DX002 (sc), vehicle: clinical formulation): 6 of 6
survivor count (dose: 781.0 mg/kg/injection, schedule: Q10DX002 (sc), vehicle: clinical formulation): 6 of 6
survivor count (dose: 800.0 mg/kg/injection, schedule: Q01DX001 (ip), vehicle: Klucel (hydroxypropylcellulose) (HPC)): 6 of 6
survivor count (dose: 800.0 mg/kg/injection, schedule: Q01DX001 (ip), vehicle: other): 6 of 6
survivor count (dose: 800.0 mg/kg/injection, schedule: Q01DX001 (other), vehicle: water): 6 of 6
survivor count (dose: 800.0 mg/kg/injection, schedule: Q01DX002 (other), vehicle: water): 6 of 6
survivor count (dose: 977.0 mg/kg/injection, schedule: Q01DX001 (sc), vehicle: clinical formulation): 6 of 6
survivor count (dose: 977.0 mg/kg/injection, schedule: Q10DX002 (sc), vehicle: clinical formulation): 6 of 6
survivor count (dose: 1000.0 mg/kg/injection, schedule: Q01DX001 (ip), vehicle: Klucel (hydroxypropylcellulose) (HPC)): 6 of 6
survivor count (dose: 1000.0 mg/kg/injection, schedule: Q01DX001 (ip), vehicle: other): 4 of 6
survivor count (dose: 1000.0 mg/kg/injection, schedule: Q01DX001 (other), vehicle: water): 6 of 6
survivor count (dose: 1000.0 mg/kg/injection, schedule: Q01DX002 (other), vehicle: water): 6 of 6
survivor count (dose: 1200.0 mg/kg/injection, schedule: Q01DX001 (ip), vehicle: Klucel (hydroxypropylcellulose) (HPC)): 3 of 6
survivor count (dose: 1200.0 mg/kg/injection, schedule: Q01DX001 (ip), vehicle: other): 6 of 6
survivor count (dose: 1400.0 mg/kg/injection, schedule: Q01DX001 (ip), vehicle: Klucel (hydroxypropylcellulose) (HPC)): 4 of 6
survivor count (dose: 1600.0 mg/kg/injection, schedule: Q01DX001 (ip), vehicle: Klucel (hydroxypropylcellulose) (HPC)): 5 of 6

From PubChem BioAssay AID186 (DTP/NCI, 2004)
